The text below walks through data of PubChem BioAssay AID2685 (National Center for Advancing Translational Sciences (NCATS), 2010).

The list shows a part of the results. The main result of the screen is listed elsewhere. These columns were measured beside it and carry no call. Compounds called inactive in the main read-out are mostly missing here. The note in brackets gives the kind of curve behind each potency; many fits are weak.

The experiment can be described thus: qHTS Assay for Lipid Storage Modulators in Drosophila S3 Cells.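 As to cell number change: cells counted by Cell Tracker Red CMTPX staining in the red channel.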 Conditions: BODIPY lipid droplet fluorescence, 18-24 h; for cell number change: measured here: cell count max response, cells fed with added oleic acid. The procedure, abridged: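 Drosophila S3 cells got compounds at several concentrations plus oleic acid (400 uM solution). Laser-scanning cytometry with 488 nm excitation read lipid droplets at 500-530 nm and cells at 575-640 nm. Percent activity was relative to 20 uM Triacsin C.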
For orientation: qHTS replaces the single test concentration by a dilution series.

Where [1] appears, read: measured here: lipid fluorescence (Fed channel) AC50, cells fed with added oleic acid.
Where [2] appears, read: measured here: cell number channel AC50, cells fed with added oleic acid.

One may read the AC50 as the concentration giving half of the maximal activity seen. Low readings indicate greater potency, high ones weaker potency. Consider `Cc1cc([N+](=O)[O-])nn1Cc1noc(C(=O)NCCc2ccccn2)n1`, for which the cell number change came to 7.21%. For the same compound, the AC50 under setting [1] was 0.58 µM [rising, single point].

For the compound `O=C(N1CCOCC1)N(Cc1ccccc1)c1ccccn1`, the cell number change is -46.5%. Further, the concentration at half-maximal activity (AC50) under setting [2] is 1.3 µM [falling, partial curve]. Further, under setting [1], the AC50 is 0.13 µM [falling, full curve].

As to `CCCCn1c(N)c(N(CCOC)C(=O)C2CCN(C(=O)c3ccccc3C)CC2)c(=O)[nH]c1=O`, the cell number change is -2.03%. For the same compound, the concentration at half-maximal activity (AC50) under setting [2] was 0.146 µM [falling, full curve, poor fit]. Under setting [1], the AC50 is 0.651 µM [falling, single point].

As to `O=C(NCN1CCc2ccccc2C1)c1cnccn1`, the cell number change is -1.62%.

Regarding `COc1ccc(CCNC(=S)N2CCN(S(=O)(=O)c3cccc(F)c3)CC2)cc1`, under setting [1], the AC50 was 0.082 µM [falling, single point].

With `CC(C)(C)c1nnc(NS(=O)(=O)c2ccc([N+](=O)[O-])cc2)s1`, the cell number change came out at 0.702%.

Consider `CCCCCCCCCCCC(=O)NC(Cc1ccc(OC)c([N+](=O)[O-])c1)C(=O)O` (centres undefined), for which the cell number change was -8.32%. Also, under setting [1], the AC50 is 0.116 µM [falling, full curve, poor fit].

Take `CC(C)Cn1c(N)c(C(=O)COC(=O)c2cc(C3CC3)nc3ccccc23)c(=O)n(C)c1=O`: the cell number change is -57.3%. Further, the AC50 under setting [2] was 20.6 µM [falling, partial curve]. Moreover, under setting [1], the AC50 is 13 µM [falling, partial curve].

Consider `COCC(C)NC(=O)/C(=C/c1ccccc1)c1ccccc1` (centres undefined), for which the cell number change was determined as 16.8%.

In the case of `CCOC(=O)c1c(NC(C)=O)sc(/C(C)=N/Nc2ccc(C(=O)O)cc2)c1C`, the cell number change amounted to 5.79%. Moreover, the AC50 under setting [1] is 0.517 µM [falling, partial curve, poor fit].

For the compound `Cc1ccc(Sc2cnc(N)nc2C)cc1`, the cell number change was -29.6%. The AC50 under setting [1] is 0.231 µM [falling, full curve].

For `CC(=O)Nc1ccc(N2C(=O)CSC2c2cccc([N+](=O)[O-])c2)cc1` (centres undefined), the cell number change was found to be 76.1%. The AC50 under setting [2] is 23.1 µM [rising, single point].

As for `CCCN(CC(=O)Nc1ccccc1C)C(=O)c1ccc(C2SCCS2)cc1`, the cell number change amounted to 31.9%. The AC50 under setting [2] was 2.91 µM [rising, partial curve]. In addition, the AC50 under setting [1] was 1.84 µM [rising, partial curve].

Regarding `COc1cccc(CNC(=O)CN2C(=O)CSc3ccc(S(=O)(=O)N4CCCCC4)cc32)c1`, the cell number change was -24.2%. Moreover, the AC50 under setting [2] is 0.58 µM [rising, single point]. In addition, the concentration at half-maximal activity (AC50) under setting [1] was 6.51 µM [rising, single point].

On to `Cc1ccc(N(C(=O)c2snc(C(N)=O)c2N)C(C(=O)NC2CCCC2)c2ccc(C)o2)cc1` (centres undefined), for which the cell number change was -2.63%. Besides, under setting [1], the AC50 is 5.62 µM [falling, single point].

On to `Cc1cc(C(=O)NNC(=O)c2cccs2)nn1C(C)(C)C`, for which the AC50 under setting [1] is 4.11 µM [rising, single point].

Turning to `COCCNC(=O)C(=O)Nc1ccc(Cl)cc1C`, the cell number change came out at 6.28%. Besides, under setting [1], the AC50 is 18.4 µM [rising, single point].

With `COC(=O)C1CCN(c2cc(=O)n(-c3ccccc3Cl)c(=O)[nH]2)CC1`, the cell number change is 14.6%. The AC50 under setting [1] is 5.8 µM [rising, partial curve, poor fit].

On to `COc1ccc(NC(=O)CSc2nc(O)cc(=O)n2C)cc1`, for which the cell number change was -54.8%. Further, the concentration at half-maximal activity (AC50) under setting [2] was 2.91 µM [falling, full curve].

In the case of `COc1ccc(C(=O)NNC(=O)CSc2nnc(COc3ccccc3OC)n2C)cc1`, the cell number change came to 6.42%. For the same compound, the AC50 under setting [2] is 4.11 µM [falling, single point].

With `CCc1ccc(NC(=O)CC2C(=O)N(c3ccc(C)cc3)C(=O)N2C2CC2)cc1` (centres undefined), the cell number change was -4.5%. For the same compound, the AC50 under setting [1] is 0.13 µM [rising, single point].

Turning to `COc1ccc(N2CC(C(=O)N/N=C/c3c[nH]c4ccccc34)CC2=O)cc1` (centres undefined), the cell number change was -32.5%. For the same compound, the AC50 under setting [2] is 0.00461 µM [falling, full curve, poor fit]. The half-maximal activity concentration (AC50) under setting [1] was 29.1 µM [falling, single point].

Regarding `CC1CCCC(C)N1c1nnc(NC(=O)c2cc(-c3ccc(Br)cc3)on2)s1` (centres undefined), the cell number change came out at 5.41%.

Turning to `Cc1ccc(NS(=O)(=O)c2ccc3c(c2)NC(=O)CO3)cc1C`, the cell number change is -18.3%. Besides, the AC50 under setting [2] is 0.517 µM [falling, full curve, poor fit].

For `O=C(COc1ccccc1Cl)Nc1ccc2c(c1)C(=O)NC2=O`, the cell number change is 7.57%. In addition, the AC50 under setting [1] is 29.1 µM [rising, single point].

Turning to `COC(=O)[C@H](C)NC(=O)Nc1cc(OC)ccc1OC`, the cell number change was -95.1%. Further, under setting [2], the AC50 was 25.9 µM [falling, partial curve, poor fit]. Under setting [1], the AC50 was 20.6 µM [falling, partial curve].

On to `CCN(CC)S(=O)(=O)c1ccc(-c2nnc(SCC(=O)Nc3ccc4c(c3)OCO4)o2)cc1`, for which the cell number change was found to be 6.37%. Further, under setting [1], the AC50 is 1.3 µM [rising, partial curve].

Take `O=c1ccc2cc3c4c(c2o1)CCCN4CCC3`: the cell number change was determined as 25.9%. Under setting [1], the AC50 is 3.26 µM [rising, partial curve, poor fit].

For the compound `CCc1noc(C)c1C(=O)Nc1nc2ccc(S(C)(=O)=O)cc2s1`, the cell number change is -38%. Besides, the AC50 under setting [2] is 32.6 µM [falling, single point].

Regarding `CCOc1ccc(N(CC(=O)Nc2c(C)cccc2C)S(=O)(=O)c2c(C)[nH]c(=O)[nH]c2=O)cc1`, the cell number change was -26.6%. For the same compound, under setting [1], the AC50 is 0.146 µM [falling, full curve, poor fit].

On to `COC(=O)c1ccc(OCC(O)CN2CCOCC2)cc1` (centres undefined), for which the cell number change is -2.7%. For the same compound, the AC50 under setting [1] is 1.3 µM [rising, full curve, poor fit].

Take `COC(=O)C1=C(O)C(C(=O)OC)C(c2ccc(C)cc2)C(C#N)(C#N)C1c1ccc(C)cc1` (centres undefined): the cell number change is -17.9%. The AC50 under setting [1] was 23.1 µM [falling, partial curve, poor fit].

Turning to `O=c1[nH]nc(-c2ccc(F)cc2)cc1Cc1cccs1`, the cell number change is 11.3%. The AC50 under setting [1] was 29.1 µM [rising, single point].

With `S=C(Nc1ccc(Nc2ccccc2)cc1)Nc1ccccn1`, the cell number change was -52%. Further, the AC50 under setting [2] was 0.731 µM [falling, full curve]. Under setting [1], the AC50 is 25.9 µM [falling, partial curve].

`O=C(NCCc1cccc(Cl)c1)C1CCC(=O)N(Cc2ccc(Cl)cc2)C1` (centres undefined): the cell number change was found to be 44.6%. The AC50 under setting [2] was 29.1 µM [rising, single point].

Regarding `CCCCCn1c(N2CCN(c3cccc(Cl)c3)CC2)nc2c1c(=O)[nH]c(=O)n2C`, the cell number change was -11.1%. The AC50 under setting [1] was 29.1 µM [falling, single point].
